From publication PMC6961209
Results are given in words; binding and its absence hold for the method and conditions named. A result given as binding can be weak or reduced; the word gives no strength.

Biological target: Microtubules polymerised from bovine tubulin (Cytoskeleton Inc.) (bovine)
Experiment: cryo-EM structure; paclitaxel-stabilised bovine tubulin MTs adhered to holey carbon grids, washed once in 60 uM MKLP2-MD in BRB20 with 2 mM ADP + AlF4, room temperature; 13 PF reconstruction with MiRP; both purified

- binding: binds
B1: Recombinant mouse MKLP2 residues 25-520 including the motor domain and neck-linker (domain or fragment, UniProt P97329 25-520)
chain: ESTAADLRSVVRKDLLSDCSVISASLEDKQALLEDTSEKVKVYLRIRPFLTSELDRQEDQGCVCIENTETLVLQAPKDSFALKSNERGVGQATHKFTFSQIFGPEVGQVAFFNLTMKEMVKDVLKGQNWLIYTYGVTNSGKTYTIQGTSKDAGILPQSLALIFNSLQGQLHPTPDLKPLLSNEVIWLDSKQIRQEEMKKLSLLIGGLQEEELSTSVKKRVHTESRIGASNSFDSGVAGLSSTSQFTSSSQLDETSQLWAQPDTVPVSVPADIRFSVWISFFEIYNELLYDLLEPPSHQHKRQTLRLCEDQNGNPYVKDLNWIHVRDVEEAWKLLKVGRKNQSFASTHMNQQSSRSHSIFSIRILHLQGEGDIVPKISELSLCDLAGSERCKHQKSGERLKEAGNINTSLHTLGRCIAALRQNQQNRSKQNLIPFRDSKLTRVFQGFFTGRGRSCMIVNVNPCASTYDETLHAAKFSALASQLVHAPPVHLGIPSLH
